Data as given in PubChem BioAssay AID504793 (Drosophila RNAi Screening Center, 2011)
The deposit covers about 23,000 reagents; this is an unselected part of those that have a named target and a result. Of all reagents, 62 (0.27%) got an active call. 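Calls come from follow-up tests whose scores are not deposited, so confirmed genes may have low counts here; counts are not normalised per plate.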 The raw values are shown without normalisation. A plus sign joins genes that one reagent is predicted to hit. No sequences are given here.

- Purpose: 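Genes required for cells to halt at G2/M after double-strand DNA breaks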 (primary screen)
- System: Drosophila S2R+ cells
- Knock-down reagent: long dsRNA against Drosophila genes, about 0.25 µg dsRNA per well
- Duration: 4 days of dsRNA, then 4 hours of drug before read-out
- Conditions: doxorubicin 0.5 µM for 4 hours to cause double-strand breaks, in cells also given a low, harmless dose of dsRNA against nbs to sensitise the assay
- Measurement: 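Mitotic index as the number of phospho-histone H3-positive cells in each well following doxorubicin, given as raw counts without normalisation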
- Scale: mitotic cells: higher = more cells in mitosis, weaker G2 arrest
- Rule for the call: 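a call needs confirmation in secondary tests, with other dsRNAs and a check of mitotic timing without damage, not just a high primary count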
- Meaning of the calls: active = confirmed in follow-up tests; inactive = not confirmed

gene	amplicon	mitotic cells, replicate 1	outcome
bdg	DRSC07136	12	inactive
Kap-alpha3	DRSC16976	15	active
CG42262 (retired record)	DRSC17628	7	inactive
CG42262 (retired record)	DRSC17974	5	inactive
c12.2	DRSC18751	18	inactive
c12.2	DRSC26390	2	inactive
CG30391	DRSC21572	5	inactive
Cyp4ac3	DRSC03304	5	inactive
Cad99C	DRSC15050	13	inactive
Cad99C	DRSC16317	2	inactive
Nedd8	DRSC02092	5	inactive
Cht6	DRSC18001	9	inactive
Cht6	DRSC18253	7	inactive
Cht6	DRSC23211	7	inactive
Cht6	DRSC28095	4	inactive
lgs	DRSC17152	3	inactive
ClC-a	DRSC14947	14	inactive
ClC-a	DRSC14948	4	inactive
ClC-a	DRSC16142	10	inactive
CG14540	DRSC14884	9	inactive
CG14540	DRSC25080	5	inactive
Pos	DRSC15415	9	inactive
CG32547	DRSC19263	26	inactive
CG32547	DRSC19474	8	inactive
Unc50	DRSC16561	6	inactive
Unc50	DRSC28560	7	inactive
Gad1	DRSC08661	10	inactive
Gad1	DRSC27052	3	inactive
Cdc14	DRSC03013	14	inactive
Cdc14	DRSC26430	7	inactive
Cyp4aa1	DRSC07368	6	inactive
Cyp4aa1	DRSC27648	8	inactive
Rab9D + Rab9E + Rab9Db + 1 more	DRSC27303	3	inactive
Spase25	DRSC19776	9	inactive
CG8028	DRSC20075	15	inactive
Pgant5	DRSC03149	9	inactive
Tab2	DRSC07481	5	inactive
p38b	DRSC03586	4	inactive
yellow-h	DRSC17141	15	inactive
CAH15	DRSC04534	3	inactive
CAH15	DRSC26087	6	inactive
sno	DRSC20378	4	inactive
Or85b	DRSC16765	9	inactive
CG6724	DRSC02983	3	inactive
fray	DRSC16950	7	inactive
tilB	DRSC20634	8	inactive
CG8925	DRSC16455	4	inactive
CG8925	DRSC16456	6	inactive
CG8925	DRSC16457	2	inactive
CG2685	DRSC18463	5	inactive
CG2685	DRSC27295	2	inactive
CG18586	DRSC10325	2	inactive
CG32855	DRSC13131	19	inactive
CG42374 + Mettl5	DRSC11085	3	inactive
CG31125	DRSC13684	24	inactive
CG31125	DRSC25124	6	inactive
PGRP-LF	DRSC28930	6	inactive
CG5850	DRSC02905	5	inactive
CG34382	DRSC10166	8	inactive
CG34382	DRSC10167	2	inactive
CG6271	DRSC16006	7	inactive
CG6271	DRSC25865	6	inactive
CG8927	DRSC16458	9	inactive
CG8927	DRSC25722	6	inactive
Srp72	DRSC15800	8	inactive
Srp72	DRSC28338	12	inactive
CG6980	DRSC16162	9	inactive
CG6980	DRSC29355	3	inactive
Eip93F	DRSC23072	9	inactive
Eip93F	DRSC27506	2	inactive
CG34281	DRSC14807	8	inactive
CG34281	DRSC30111	1	inactive
cher	DRSC16924	3	inactive
cher	DRSC27625	2	inactive
CG9593	DRSC16508	7	inactive
CG15160	DRSC02461	4	inactive
CG15160	DRSC27129	3	inactive
CG4613	DRSC10435	5	inactive
CG4613	DRSC25652	5	inactive
Rgk3	DRSC04250	9	inactive
Rgk3	DRSC04254	3	inactive
Rgk3	DRSC04255	5	inactive
Rgk3	DRSC28131	5	inactive
Nmnat	DRSC14644	5	inactive
Nmnat	DRSC26899	3	inactive
pall	DRSC10364	11	inactive
CG2291	DRSC06836	8	inactive
CG11180	DRSC06055	2	inactive
CG11180	DRSC28153	3	inactive
Indy-2 + CG33934	DRSC15685	10	inactive
Indy-2 + CG33934	DRSC15686	9	inactive
CG12486 (retired record)	DRSC09888	4	inactive
CG12486 (retired record)	DRSC29802	1	inactive
ouib	DRSC14376	6	inactive
Vha36-1	DRSC07098	4	inactive
Vha36-1	DRSC25624	6	inactive
CG9752	DRSC04562	6	inactive
GV1	DRSC08228	5	inactive
GV1	DRSC25953	8	inactive
CG17193	DRSC15187	9	inactive
Dop2R	DRSC20683	4	inactive
Dop2R	DRSC29286	2	inactive
Acp1	DRSC01854	2	inactive
tea	DRSC06110	11	inactive
tea	DRSC06236	4	inactive
mmm	DRSC10208	8	inactive
Alg14	DRSC19983	5	inactive
Mabi	DRSC02489	14	inactive
Mabi	DRSC29933	6	inactive
Abl	DRSC09661	7	inactive
Abl	DRSC23306	7	inactive
Skp2 + CG1103	DRSC12160	7	inactive
Skp2 + CG1103	DRSC22356	7	inactive
CG9945	DRSC07347	7	inactive
CG9945	DRSC28885	6	inactive
Eig71Ei	DRSC11156	5	inactive
Eig71Ei	DRSC29123	5	inactive
Gnmt	DRSC15987	2	inactive
Rab7	DRSC16810	8	inactive
CG18746	DRSC15383	3	inactive
dmrt93B	DRSC15865	5	inactive
dmrt93B	DRSC29931	7	inactive
CG12902	DRSC06217	5	inactive
CG14545	DRSC14889	5	inactive
CG14545	DRSC27728	5	inactive
unc	DRSC20511	4	inactive
unc	DRSC27962	1	inactive
BTBD9	DRSC18148	5	inactive
BTBD9	DRSC22371	6	inactive
CG43775	DRSC04206	5	inactive
PpD5	DRSC04641	4	inactive
PpD5	DRSC23312	9	inactive
CG3349	DRSC10359	5	inactive
Task6	DRSC16530	3	inactive
CG3061	DRSC15460	7	inactive
CG3061	DRSC26419	7	inactive
Mpp6	DRSC03169	3	inactive
Mpp6	DRSC29734	6	inactive
rdgA	DRSC17863	5	inactive
rdgA	DRSC18036	9	inactive
rdgA	DRSC18827	13	inactive
rdgA	DRSC25192	10	inactive
rdgA	DRSC27192	3	inactive
rdgA	DRSC39133	12	inactive
